Test results reported in patent US20090208489A1.
No constants are given. Whether binding was seen depends on the method and setting. Some entries that bind do so weakly or less than the wild type. For some assays here: Sequences can lack the tags named with a protein.

Assays:
[1] = target: OV064(32-282) expressed on transfected ES-2 ovarian carcinoma cells (human) (UniProt Q7Z7D3); assay: flow cytometry
[2] = target: T1, recombinant OV064-His fusion protein (FLAG-OV064(32-257)-His, from 293 cells) (human) (UniProt Q7Z7D3); assay: ELISA
T1 sequence: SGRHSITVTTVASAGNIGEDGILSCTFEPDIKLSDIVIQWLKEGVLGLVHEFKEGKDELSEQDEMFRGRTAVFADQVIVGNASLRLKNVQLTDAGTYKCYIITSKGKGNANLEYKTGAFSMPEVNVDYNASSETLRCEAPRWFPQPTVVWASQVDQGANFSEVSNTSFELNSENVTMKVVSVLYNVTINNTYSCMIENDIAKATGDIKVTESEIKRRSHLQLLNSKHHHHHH

[3] = target: OV064(32-282) expressed on transfected ES-2 ovarian carcinoma cells (human) (UniProt Q7Z7D3); assay: flow cytometry screen, ES2/OV064 cells
[4] = target: T1, recombinant OV064-His fusion protein (FLAG-OV064(32-257)-His, from 293 cells) (human); assay: ELISA screen, OV064-His
[5] = target: OV064(32-282) expressed on transfected ES-2 ovarian carcinoma cells (human) (UniProt Q7Z7D3); assay: flow cytometry, supernatants and purified mAb

Measured: binding

B1: human monoclonal antibody mAb sc189 (antibody, human IgG1, kappa, V domains shown)
VH: EVQLVESGGGLVQPGGSLRLSCAASGFSFSSYDMHWVRQATGKGLEWVSGIDIAGDTYYPGSVKGRFTISRENAKNSLYLQMNSLRAGDTAVYYCARGDYDGTFDYWGQGTLVTVSS
VL: DIVMTQTPLSSPVTLGQPASISCRSSQSLVHSDGNTYLSWLQQRPGQPLRLLFYKISNRFSGVPDRFSGSGAGTDFTLIINRVEAEDVGVYYCMHATQFPITFGQGTRLEIKR
binds: all assays above
